PMC3338797
Substitutions are numbered along the chain they refer to. These are yes or no findings as the source states them, for the method shown. In cells and extracts the contact can be indirect. Some binding calls cover weakened binding; strength is not graded here. Where a sequence is shown, tags or fusion partners need not be part of it.

The chains behind the UniProt entries cited, without tags or fusion partners.
UniProt P46937: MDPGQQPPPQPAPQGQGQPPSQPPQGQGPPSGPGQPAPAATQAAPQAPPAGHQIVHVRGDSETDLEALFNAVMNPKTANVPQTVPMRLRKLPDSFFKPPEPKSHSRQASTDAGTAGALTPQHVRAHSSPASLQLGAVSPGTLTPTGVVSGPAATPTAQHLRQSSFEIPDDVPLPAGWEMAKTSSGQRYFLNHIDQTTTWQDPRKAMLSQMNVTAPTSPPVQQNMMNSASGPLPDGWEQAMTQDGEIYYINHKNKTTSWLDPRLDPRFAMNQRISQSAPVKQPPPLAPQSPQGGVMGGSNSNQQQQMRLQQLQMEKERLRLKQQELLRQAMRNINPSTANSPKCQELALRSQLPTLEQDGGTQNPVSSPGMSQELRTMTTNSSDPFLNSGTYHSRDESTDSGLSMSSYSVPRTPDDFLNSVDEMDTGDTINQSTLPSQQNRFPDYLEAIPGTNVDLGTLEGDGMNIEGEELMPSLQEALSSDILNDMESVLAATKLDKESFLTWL

Experiments:
[1] = target: T1, Flag-tagged AMOTL1 (Angiomotin-like 1), wild type (human) (UniProt Q8IY63); experiment: co-IP; HEK293T cells co-transfected; lysis buffer 20 mM Tris pH 7.5, 1% Triton X-100, 50 mM NaCl, 50 mM NaF, 15 mM Na4P2O7, 0.1 mM EDTA; lysate 1 h at 4°C with anti-Flag M2 resin; Western blot of bound proteins
T1 sequence: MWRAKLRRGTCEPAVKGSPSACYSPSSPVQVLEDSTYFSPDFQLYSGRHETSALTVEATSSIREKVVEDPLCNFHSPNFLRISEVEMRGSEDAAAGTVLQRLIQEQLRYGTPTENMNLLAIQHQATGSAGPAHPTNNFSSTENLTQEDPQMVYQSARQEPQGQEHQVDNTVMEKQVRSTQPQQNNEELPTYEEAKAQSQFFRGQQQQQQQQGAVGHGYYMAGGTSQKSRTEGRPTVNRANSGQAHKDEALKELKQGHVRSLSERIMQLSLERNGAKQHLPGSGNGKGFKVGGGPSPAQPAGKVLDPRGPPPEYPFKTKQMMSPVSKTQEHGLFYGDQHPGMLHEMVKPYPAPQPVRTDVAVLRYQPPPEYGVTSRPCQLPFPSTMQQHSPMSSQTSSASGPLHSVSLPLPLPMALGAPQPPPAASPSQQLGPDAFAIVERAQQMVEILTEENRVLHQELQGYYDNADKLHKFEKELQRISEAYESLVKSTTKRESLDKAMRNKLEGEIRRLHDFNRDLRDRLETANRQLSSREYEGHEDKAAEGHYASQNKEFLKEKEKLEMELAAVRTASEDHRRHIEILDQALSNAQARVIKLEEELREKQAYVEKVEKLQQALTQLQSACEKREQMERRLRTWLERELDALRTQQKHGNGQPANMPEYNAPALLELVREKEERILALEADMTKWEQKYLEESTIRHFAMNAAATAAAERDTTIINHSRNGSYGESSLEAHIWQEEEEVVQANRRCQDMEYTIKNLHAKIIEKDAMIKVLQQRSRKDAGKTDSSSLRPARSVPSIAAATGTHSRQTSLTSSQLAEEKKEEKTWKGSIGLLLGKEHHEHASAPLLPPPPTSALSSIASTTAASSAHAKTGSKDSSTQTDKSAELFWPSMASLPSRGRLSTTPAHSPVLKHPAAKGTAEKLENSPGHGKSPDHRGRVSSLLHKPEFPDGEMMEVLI

[2] = target: T2, Flag-tagged AMOTL1^310–313A/367–370A (human) (UniProt Q8IY63); experiment: as above
T2 sequence: T1 sequence with P310A, P311A, E312A, Y313A, P367A, P368A, E369A, Y370A

binding [1]: binds | binding [2]: binds
Substance: V5-tagged YAP1, wild type (from UniProt P46937 1-504)
